These are yes or no findings as the source states them, for the method shown. In cells and extracts the contact can be indirect. Some results given as binding are weak or reduced against the parent protein; the word gives no strength.
How the values were obtained:
[1] = biological target: T1, ZC3H14 (endogenous, found in the CDK13 IP-MS from human melanoma cells) (human) (UniProt Q6PJT7); experiment: IP-MS of CDK13^WT from human melanoma cells
T1 sequence: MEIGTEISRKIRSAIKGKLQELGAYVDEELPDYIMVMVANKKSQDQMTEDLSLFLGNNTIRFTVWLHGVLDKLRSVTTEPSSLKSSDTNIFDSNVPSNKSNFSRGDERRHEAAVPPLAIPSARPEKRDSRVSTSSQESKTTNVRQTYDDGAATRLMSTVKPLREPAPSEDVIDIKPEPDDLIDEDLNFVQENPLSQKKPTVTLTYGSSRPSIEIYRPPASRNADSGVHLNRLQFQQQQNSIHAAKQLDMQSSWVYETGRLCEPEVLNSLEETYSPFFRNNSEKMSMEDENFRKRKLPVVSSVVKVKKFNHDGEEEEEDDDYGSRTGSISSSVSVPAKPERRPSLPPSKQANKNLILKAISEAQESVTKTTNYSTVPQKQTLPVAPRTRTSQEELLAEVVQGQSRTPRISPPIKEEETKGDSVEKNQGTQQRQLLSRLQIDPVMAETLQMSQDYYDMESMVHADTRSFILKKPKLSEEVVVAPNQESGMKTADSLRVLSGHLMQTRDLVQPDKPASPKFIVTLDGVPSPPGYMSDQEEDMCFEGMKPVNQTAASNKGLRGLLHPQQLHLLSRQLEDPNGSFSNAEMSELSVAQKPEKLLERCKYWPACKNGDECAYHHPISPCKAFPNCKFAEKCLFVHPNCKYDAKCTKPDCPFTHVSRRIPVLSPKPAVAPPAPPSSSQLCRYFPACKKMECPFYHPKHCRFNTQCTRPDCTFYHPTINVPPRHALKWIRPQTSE

The chains behind the UniProt entries cited, without tags or fusion partners.
UniProt Q14004: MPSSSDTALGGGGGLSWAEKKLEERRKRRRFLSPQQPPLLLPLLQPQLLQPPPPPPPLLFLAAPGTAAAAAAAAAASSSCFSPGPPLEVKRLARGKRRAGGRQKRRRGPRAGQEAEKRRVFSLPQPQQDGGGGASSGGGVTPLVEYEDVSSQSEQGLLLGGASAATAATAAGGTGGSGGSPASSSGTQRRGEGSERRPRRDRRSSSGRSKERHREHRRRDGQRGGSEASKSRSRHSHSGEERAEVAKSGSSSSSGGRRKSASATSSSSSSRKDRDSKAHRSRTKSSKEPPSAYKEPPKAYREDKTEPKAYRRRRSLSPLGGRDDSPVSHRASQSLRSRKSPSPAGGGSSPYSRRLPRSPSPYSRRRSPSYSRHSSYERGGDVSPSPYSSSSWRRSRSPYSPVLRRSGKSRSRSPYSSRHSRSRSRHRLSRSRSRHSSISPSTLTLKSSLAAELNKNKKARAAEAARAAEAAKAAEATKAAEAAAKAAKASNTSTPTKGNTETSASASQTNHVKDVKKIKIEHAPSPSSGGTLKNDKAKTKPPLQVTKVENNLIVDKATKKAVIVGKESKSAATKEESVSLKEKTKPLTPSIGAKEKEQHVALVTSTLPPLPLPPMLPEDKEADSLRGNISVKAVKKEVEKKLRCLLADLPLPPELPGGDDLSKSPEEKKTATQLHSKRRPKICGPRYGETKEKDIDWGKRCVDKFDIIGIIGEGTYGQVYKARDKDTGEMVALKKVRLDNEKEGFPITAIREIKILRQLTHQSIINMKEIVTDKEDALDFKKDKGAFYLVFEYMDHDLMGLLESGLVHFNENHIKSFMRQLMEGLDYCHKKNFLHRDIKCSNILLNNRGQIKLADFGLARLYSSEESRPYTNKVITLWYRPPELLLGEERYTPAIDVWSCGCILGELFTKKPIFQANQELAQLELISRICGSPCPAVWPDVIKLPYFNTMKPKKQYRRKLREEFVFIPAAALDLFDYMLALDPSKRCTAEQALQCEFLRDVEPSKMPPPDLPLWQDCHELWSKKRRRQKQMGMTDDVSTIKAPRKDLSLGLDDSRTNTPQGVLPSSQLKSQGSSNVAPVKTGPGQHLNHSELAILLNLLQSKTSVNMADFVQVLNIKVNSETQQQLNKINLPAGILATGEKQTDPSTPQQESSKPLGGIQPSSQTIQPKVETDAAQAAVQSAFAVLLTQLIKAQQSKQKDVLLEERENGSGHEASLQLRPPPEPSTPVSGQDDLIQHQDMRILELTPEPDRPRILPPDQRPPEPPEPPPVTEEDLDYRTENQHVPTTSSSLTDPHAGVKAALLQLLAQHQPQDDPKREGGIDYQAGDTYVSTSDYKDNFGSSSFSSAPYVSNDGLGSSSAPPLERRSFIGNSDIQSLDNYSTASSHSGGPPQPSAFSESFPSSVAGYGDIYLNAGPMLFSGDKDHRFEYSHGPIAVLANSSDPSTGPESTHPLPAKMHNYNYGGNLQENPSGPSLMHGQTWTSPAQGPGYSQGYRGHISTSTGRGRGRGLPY

[2] = biological target: T2, PABPN1 (human) (UniProt Q86U42); experiment: IP-MS of CDK13 from human melanoma cells
T2 sequence (looked up): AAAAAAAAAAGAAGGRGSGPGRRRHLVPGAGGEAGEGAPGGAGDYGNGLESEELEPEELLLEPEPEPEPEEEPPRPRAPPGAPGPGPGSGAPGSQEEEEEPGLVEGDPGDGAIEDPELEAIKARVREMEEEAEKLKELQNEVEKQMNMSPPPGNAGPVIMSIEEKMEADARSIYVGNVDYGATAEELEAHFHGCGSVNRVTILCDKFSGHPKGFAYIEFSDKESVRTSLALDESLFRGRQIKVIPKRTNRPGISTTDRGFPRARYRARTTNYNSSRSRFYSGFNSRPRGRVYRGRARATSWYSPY

[3] = biological target: T1, ZC3H14 (endogenous, found in the CDK13 IP-MS from human melanoma cells) (human); experiment: IP-MS of CDK13 from human melanoma cells

binding [1]: binds | binding [2]: binds | binding [3]: binds
Substance: CDK13^WT (bait of the CDK13 IP-MS) (from UniProt Q14004 1-1512) (enzyme)

Reference: US20250327050A1
